No constants are given. Whether binding was seen depends on the method and setting. Binding seen in cells or lysates may run through a third protein. Binding can be weak; no strength is given. Where a sequence is shown, tags or fusion partners need not be part of it.
Target: T1, HA-tagged VDR (vitamin D receptor), wild type (human) (UniProt P11473)
T1 sequence (acetylated lysine at 91 (K91Ac), looked up): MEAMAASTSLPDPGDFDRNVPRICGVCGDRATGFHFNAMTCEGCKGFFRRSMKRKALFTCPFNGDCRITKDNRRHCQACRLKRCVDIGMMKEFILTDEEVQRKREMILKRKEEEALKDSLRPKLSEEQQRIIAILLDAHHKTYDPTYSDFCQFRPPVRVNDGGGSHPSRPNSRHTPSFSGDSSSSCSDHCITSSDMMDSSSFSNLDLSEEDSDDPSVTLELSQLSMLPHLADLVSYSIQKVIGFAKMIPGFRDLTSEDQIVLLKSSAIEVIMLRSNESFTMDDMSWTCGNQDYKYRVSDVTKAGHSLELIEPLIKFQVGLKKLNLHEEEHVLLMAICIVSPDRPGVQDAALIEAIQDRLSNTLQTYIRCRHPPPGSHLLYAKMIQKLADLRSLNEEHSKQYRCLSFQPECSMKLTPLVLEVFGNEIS
Assay: co-immunoprecipitation of endogenous PCAF with HA-VDR from INS1 cells, Western blot (FIG. 4K)

- binding: binds
Substance: endogenous PCAF (INS1 cells) (enzyme)
